We go through 42 sequences from PMC7819943, “Rice protein-binding microarrays: a tool to detect cis-acting elements near promoter regions in rice”.

Amino acid sequences for entries named in this document (tags omitted).
UniProt Q0JBA9, entry or part of it: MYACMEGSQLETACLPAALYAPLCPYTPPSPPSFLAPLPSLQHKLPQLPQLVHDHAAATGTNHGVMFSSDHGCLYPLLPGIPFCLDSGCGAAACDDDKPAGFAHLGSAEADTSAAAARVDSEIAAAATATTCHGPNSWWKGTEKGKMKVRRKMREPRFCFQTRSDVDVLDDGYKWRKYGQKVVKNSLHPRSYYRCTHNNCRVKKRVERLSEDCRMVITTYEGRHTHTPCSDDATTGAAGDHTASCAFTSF

This is one part of the list.

This test deals with OsWRKY34 (Oryza sativa, UniProt Q0JBA9 1-250). In words: protein-binding microarray (RPBM); PBS, 2% BSA, 51.3 ng/ul salmon testes DNA, 50 uM zinc acetate, 200 nM TF, 25 C, 1 h; high values mean tight binding. Particulars: protein: recombinant; tags: N-terminal polyhistidine and DsRed monomer fusion (pET32a); label: CyDye5-dUTP incorporated in the synthesized complementary strand; 3' TTTTT single-stranded linker to array surface; dsDNA, one strand shown. The procedure, abridged: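 Transcription factors, each fused N-terminally to a polyhistidine tag and DsRed, were expressed in E. coli BL21-CodonPlus and purified on Ni–NTA. A custom Agilent array was made double-stranded by primer extension with Cy5-dUTP and blocked with 2% BSA. It was incubated with 200 nM protein in PBS, 2% BSA, salmon testes DNA and 50 µM zinc acetate at 25 °C for 1 h, then washed. The binding signal is per-feature fluorescence intensity (arbitrary units) read on an Axon 4000B scanner.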
As for “TGTACTGGCCGTTGATTCTGCAGATTCCGCGAATCGTGCGCGGAGTCACCTAGTGCAG”, the binding signal was 8720 fluorescence intensity (a.u.).
On to “CCATGCACCTCTCGTCGTCTTCCTGATTTCGCCGCCACTTCGGAGTCACCTAGTGCAG”, for which the binding signal was 8450 fluorescence intensity (a.u.).
On to “AACACCACACGCCGAGTCGACAATATATAACCCACGACACCGGAGTCACCTAGTGCAG”, for which the binding signal was 8160 fluorescence intensity (a.u.).
As for “CGGCGCCGCCACGTCGGATCCCCAACCGCTGAACCGTCCGCGGAGTCACCTAGTGCAG”, the binding signal is 8440 fluorescence intensity (a.u.).
With “ACCACAATACTGGACCGCGTTATCACTCATCGGTGTCAACCGGAGTCACCTAGTGCAG”, the binding signal is 8580 fluorescence intensity (a.u.).
As to “AAAGTATTTTAAGCACAACTTTTCGTTTTTTATATTTGCACGGAGTCACCTAGTGCAG”, the binding signal was 8930 fluorescence intensity (a.u.).
For the sequence “AAATAATTATCATGTTTGTGTCCATTCATTAAGTCTATTCCGGAGTCACCTAGTGCAG”, the binding signal is 8020 fluorescence intensity (a.u.).
The value for “CTCTCTCCTCCTCCTTCCAGGTGTGCGTGTTGTACACGCGCGGAGTCACCTAGTGCAG” was 8320 fluorescence intensity (a.u.); that for “TTGTTTATTTTATCAATTGACGTGTTCATGCAATCCACAACGGAGTCACCTAGTGCAG” was 8570 fluorescence intensity (a.u.).
As for “CTATTCATAGTCAAATTTGTTTATTTTGTTTCTACTTGTACGGAGTCACCTAGTGCAG”, the binding signal is 8740 fluorescence intensity (a.u.).
On to “TTACTCCACCAGTAGATTGGTTGGGTTGGGGTTGGGTTTGCGGAGTCACCTAGTGCAG”, for which the binding signal was 11300 fluorescence intensity (a.u.).
Take “ACACTGCCACTCTCTCCCTAGGCCTATAAATACCACCAGTCGGAGTCACCTAGTGCAG”: the binding signal was 8340 fluorescence intensity (a.u.).
The value for “CCCTATTTCTGTATTCACTCGTTCATTGTACTTAATTTTTCGGAGTCACCTAGTGCAG” was 13500 fluorescence intensity (a.u.).
As for “ATTTTGGTACGTCATCCATATTTGAATCGGTTTTTAAGTTCGGAGTCACCTAGTGCAG”, the figure is 8510 fluorescence intensity (a.u.).
As for “ATTTTTGCAGTGTATTATGACTCATCTTTTTTTTTCAAATCGGAGTCACCTAGTGCAG”, the figure is 8240 fluorescence intensity (a.u.).
Consider “CATACGGTGACACTTGGCATTAATCTAATTTAACTTTTTTCGGAGTCACCTAGTGCAG”, for which the binding signal is 8550 fluorescence intensity (a.u.).
Turning to “GGCGGCGGGCGATGAATCCTCCTCGGGGAGGGCGTGGCAACGGAGTCACCTAGTGCAG”, the binding signal is 9870 fluorescence intensity (a.u.).
As for “AATTTTTCTATAGGATTGAAATCCTCTTTACTATGTTTTTCGGAGTCACCTAGTGCAG”, the binding signal is 8420 fluorescence intensity (a.u.).
With “ATGACATGCACCCGTACTAAGCTTTATGTAGATATCTCTACGGAGTCACCTAGTGCAG”, the binding signal was 10400 fluorescence intensity (a.u.).
As to “TGGTTCTGTGTCCAAGCTTAATATAAGTTTACAGCCCACTCGGAGTCACCTAGTGCAG”, the binding signal is 9680 fluorescence intensity (a.u.).
Turning to “TGGAAACTATGTCTAGTGTTATGGGTTGGGACTGCCCTAACGGAGTCACCTAGTGCAG”, the binding signal was 8390 fluorescence intensity (a.u.).
As for “ATATGTTATGTTTGAGTATATATGTTGCGTTTTAGTTTTACGGAGTCACCTAGTGCAG”, the binding signal is 10700 fluorescence intensity (a.u.).
Regarding “ACCTTTCACCCACCCACCACCACACCACAGCTACTTACCTCGGAGTCACCTAGTGCAG”, the binding signal was 9430 fluorescence intensity (a.u.).
The value for “ACCTACGAACAACTCACCATTCTTGGCCGCATTTGCCTTTCGGAGTCACCTAGTGCAG” was 8860 fluorescence intensity (a.u.); that for “TTGTAACGCACGGTTTTTTTTTTTGTCTAGTAAGCTAAAACGGAGTCACCTAGTGCAG” was 8300 fluorescence intensity (a.u.); that for “CGAGTTTAATCTGCCAATTTGGGCTCCACATGACACACATCGGAGTCACCTAGTGCAG” was 8600 fluorescence intensity (a.u.).
Consider “CTCCCGTCAGTTGACCGTGTGTTGACCGTTAATTCTCAAGCGGAGTCACCTAGTGCAG”, for which the binding signal is 17500 fluorescence intensity (a.u.).
Take “TAAAAAATTATATTGTACTACATTGTTTACATCACTTGTTCGGAGTCACCTAGTGCAG”: the binding signal is 8240 fluorescence intensity (a.u.).
“GGCGCCGCCGTCGTCCTGCTGCTTCCGCCGCCGCGTCTTCCGGAGTCACCTAGTGCAG”: the binding signal was 11000 fluorescence intensity (a.u.).
As for “TGTTGCGCCGTCACTCGTAGACTACTCCATCTCGCTCGCCCGGAGTCACCTAGTGCAG”, the figure is 11200 fluorescence intensity (a.u.); as for “AGGGAGAGGGAGAGGAAGGGCGGGGACGCGGGAGACGATGCGGAGTCACCTAGTGCAG”, 8510 fluorescence intensity (a.u.); as for “GTTGGTGGTGGTGGTGGAGGAGGCGGTGGTGGGATCGATGCGGAGTCACCTAGTGCAG”, 23900 fluorescence intensity (a.u.).
For the sequence “TATTTGGCCTGGTTTAGTTCCCAATTTTTTTCCCAAAACACGGAGTCACCTAGTGCAG”, the binding signal is 9390 fluorescence intensity (a.u.).
For “ACGTCTCGTATGGTTGTAGTCGGATCGTCAACGTTTCTCCCGGAGTCACCTAGTGCAG”, the binding signal is 9290 fluorescence intensity (a.u.).
Turning to “CCGCGCCCAACGCATCCGTCCCGTCGGTTCCGAACCCAACCGGAGTCACCTAGTGCAG”, the binding signal is 9890 fluorescence intensity (a.u.).
For “GTACGTCATCAGTATTTAAGTCGGTTTTTAAGCTCGTTCGCGGAGTCACCTAGTGCAG”, the binding signal is 9540 fluorescence intensity (a.u.).
Consider “GTTTTGCACATCCGGTTTTCTCTCTCTCTCTCTCTCCTTTCGGAGTCACCTAGTGCAG”, for which the binding signal was 16700 fluorescence intensity (a.u.).
With “GAGTATATAGTTTTAGACTTTTAGTGTGTTCCTTCCAATACGGAGTCACCTAGTGCAG”, the binding signal was 8540 fluorescence intensity (a.u.).
In the case of “AGGTTGAGTTCTTCCCCGAGTGCACCTGTTATTTTCCCGTCGGAGTCACCTAGTGCAG”, the binding signal was 8540 fluorescence intensity (a.u.).
The value for “ATGCAAACAAAAACCAGACGAAATATAAACTCAAACCATACGGAGTCACCTAGTGCAG” was 10400 fluorescence intensity (a.u.).
As for “GTCTCGTCTTGCTGTTCTAGAAGATTTCTCTTCGCGTCGCCGGAGTCACCTAGTGCAG”, the binding signal was 10500 fluorescence intensity (a.u.).
Take “TATTCGAATCACCCATTCTTTTTTCTTTATTCAATCTGTCCGGAGTCACCTAGTGCAG”: the binding signal was 8550 fluorescence intensity (a.u.).
